# In the supplement of paper PMC8728848:
# This is one part of the list.
# How the values were obtained:
# Assay in all cases: glycan array binding signal (z-score within array); higher = stronger binding
# Conditions in all cases: glycan notation: IUPAC condensed, linker removed
# [1] = molecular target: GlcNAc(a1-6)Gal(b1-4)GlcNAc
# Procedure, shortened: (§1)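 The binding signal is a Z-score computed within each array and averaged over linkers. Arrays of the same protein sequence at different concentrations or buffers were also averaged together. Data originate from 3228 arrays in the Consortium for Functional Glycomics database, kept only where the protein sequence was available.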
# [2] = molecular target: GlcNAc(b1-2)Gal(b1-3)GalNAc
# Procedure, shortened: as §1
# [3] = molecular target: GlcNAc(b1-2)Man(a1-3)[GlcNAc(b1-2)Man(a1-6)]Man(b1-4)GlcNAc(b1-4)GlcNAc
# Procedure, shortened: as §1
# [4] = molecular target: GlcNAc(b1-2)Man(a1-3)[GlcNAc(b1-2)Man(a1-6)]Man(b1-4)GlcNAc(b1-4)[Fuc(a1-6)]GlcNAc
# Procedure, shortened: as §1
# [5] = molecular target: GlcNAc(b1-2)Man(a1-3)[GlcNAc(b1-4)][GlcNAc(b1-2)Man(a1-6)]Man(b1-4)GlcNAc(b1-4)GlcNAc
# Procedure, shortened: as §1
# [6] = molecular target: GlcNAc(b1-2)Man(a1-3)[GlcNAc(b1-4)][GlcNAc(b1-2)Man(a1-6)]Man(b1-4)GlcNAc(b1-4)[Fuc(a1-6)]GlcNAc
# Procedure, shortened: as §1
# [7] = molecular target: GlcNAc(b1-2)[GlcNAc(b1-4)]Man(a1-3)[GlcNAc(b1-2)Man(a1-6)]Man(b1-4)GlcNAc(b1-4)GlcNAc
# Procedure, shortened: as §1
# [8] = molecular target: GlcNAc(b1-2)[GlcNAc(b1-4)]Man(a1-3)[GlcNAc(b1-4)][GlcNAc(b1-2)Man(a1-6)]Man(b1-4)GlcNAc(b1-4)GlcNAc
# Procedure, shortened: as §1
# [9] = molecular target: GlcNAc(b1-2)[GlcNAc(b1-4)]Man(a1-3)[GlcNAc(b1-4)][GlcNAc(b1-2)[GlcNAc(b1-6)]Man(a1-6)]Man(b1-4)GlcNAc(b1-4)GlcNAc
# Procedure, shortened: as §1
# [10] = molecular target: GlcNAc(b1-2)[GlcNAc(b1-4)]Man(a1-3)[GlcNAc(b1-4)][GlcNAc(b1-2)[GlcNAc(b1-6)]Man(a1-6)]Man(b1-4)GlcNAc(b1-4)[Fuc(a1-6)]GlcNAc
# Procedure, shortened: as §1
# [11] = molecular target: GlcNAc(b1-2)[GlcNAc(b1-6)]Man(a1-6)[GlcNAc(b1-2)Man(a1-3)]Man(b1-4)GlcNAc(b1-4)GlcNAc
# Procedure, shortened: as §1
# [12] = molecular target: GlcNAc(b1-2)[GlcNAc(b1-6)]Man(a1-6)[GlcNAc(b1-2)Man(a1-3)]Man(b1-4)GlcNAc(b1-4)[Fuc(a1-6)]GlcNAc
# Procedure, shortened: as §1
# [13] = molecular target: GlcNAc(b1-2)[GlcNAc(b1-6)]Man(a1-6)[GlcNAc(b1-4)][GlcNAc(b1-2)Man(a1-3)]Man(b1-4)GlcNAc(b1-4)GlcNAc
# Procedure, shortened: as §1
# GlcNAc(b1-3)Fuc = molecular target: GlcNAc(b1-3)Fuc
# Procedure, shortened: as §1
# GlcNAc(b1-3)Gal = molecular target: GlcNAc(b1-3)Gal
# Procedure, shortened: as §1
# [14] = molecular target: GlcNAc(b1-3)Gal(b1-3)GalNAc
# Procedure, shortened: as §1
# GlcNAc(b1-3)Gal(b1-4)Glc = molecular target: GlcNAc(b1-3)Gal(b1-4)Glc
# Procedure, shortened: as §1
# [15] = molecular target: GlcNAc(b1-3)Gal(b1-4)GlcNAc
# Procedure, shortened: as §1
# [16] = molecular target: GlcNAc(b1-3)Gal(b1-4)GlcNAc(b1-2)Man(a1-3)[GlcNAc(b1-3)Gal(b1-4)GlcNAc(b1-2)Man(a1-6)]Man(b1-4)GlcNAc(b1-4)GlcNAc
# Procedure, shortened: as §1
# [17] = molecular target: GlcNAc(b1-3)Gal(b1-4)GlcNAc(b1-2)Man(a1-3)[GlcNAc(b1-3)Gal(b1-4)GlcNAc(b1-2)Man(a1-6)]Man(b1-4)GlcNAc(b1-4)[Fuc(a1-6)]GlcNAc
# Procedure, shortened: as §1
# [18] = molecular target: GlcNAc(b1-3)Gal(b1-4)GlcNAc(b1-2)[GlcNAc(b1-3)Gal(b1-4)GlcNAc(b1-6)]Man(a1-6)[GlcNAc(b1-3)Gal(b1-4)GlcNAc(b1-2)Man(a1-3)]Man(b1-4)GlcNAc(b1-4)GlcNAc
# Procedure, shortened: as §1
# [19] = molecular target: GlcNAc(b1-3)Gal(b1-4)GlcNAc(b1-3)Gal(b1-4)GlcNAc
# Procedure, shortened: as §1
# [20] = molecular target: GlcNAc(b1-3)Gal(b1-4)GlcNAc(b1-3)Gal(b1-4)GlcNAc(b1-2)Man(a1-3)[GlcNAc(b1-3)Gal(b1-4)GlcNAc(b1-3)Gal(b1-4)GlcNAc(b1-2)Man(a1-6)]Man(b1-4)GlcNAc(b1-4)GlcNAc
# Procedure, shortened: as §1
# [21] = molecular target: GlcNAc(b1-3)Gal(b1-4)GlcNAc(b1-3)Gal(b1-4)GlcNAc(b1-2)Man(a1-3)[GlcNAc(b1-3)Gal(b1-4)GlcNAc(b1-3)Gal(b1-4)GlcNAc(b1-2)Man(a1-6)]Man(b1-4)GlcNAc(b1-4)[Fuc(a1-6)]GlcNAc
# Procedure, shortened: as §1
# [22] = molecular target: GlcNAc(b1-3)Gal(b1-4)GlcNAc(b1-3)Gal(b1-4)GlcNAc(b1-2)[GlcNAc(b1-3)Gal(b1-4)GlcNAc(b1-3)Gal(b1-4)GlcNAc(b1-6)]Man(a1-6)[GlcNAc(b1-3)Gal(b1-4)GlcNAc(b1-3)Gal(b1-4)GlcNAc(b1-2)Man(a1-3)]Man(b1-4)GlcNAc(b1-4)[Fuc(a1-6)]GlcNAc
# Procedure, shortened: as §1
# [23] = molecular target: GlcNAc(b1-3)Gal(b1-4)GlcNAc(b1-3)Gal(b1-4)GlcNAc(b1-3)Gal(b1-4)GlcNAc(b1-2)Man(a1-3)[GlcNAc(b1-3)Gal(b1-4)GlcNAc(b1-3)Gal(b1-4)GlcNAc(b1-3)Gal(b1-4)GlcNAc(b1-2)Man(a1-6)]Man(b1-4)GlcNAc(b1-4)GlcNAc
# Procedure, shortened: as §1
# [24] = molecular target: GlcNAc(b1-3)Gal(b1-4)GlcNAc(b1-3)Gal(b1-4)GlcNAc(b1-3)Gal(b1-4)GlcNAc(b1-2)Man(a1-3)[GlcNAc(b1-3)Gal(b1-4)GlcNAc(b1-3)Gal(b1-4)GlcNAc(b1-3)Gal(b1-4)GlcNAc(b1-2)Man(a1-6)]Man(b1-4)GlcNAc(b1-4)[Fuc(a1-6)]GlcNAc
# Procedure, shortened: as §1
# [25] = molecular target: GlcNAc(b1-3)Gal(b1-4)GlcNAc(b1-3)Gal(b1-4)GlcNAc(b1-3)Gal(b1-4)GlcNAc(b1-2)[GlcNAc(b1-3)Gal(b1-4)GlcNAc(b1-3)Gal(b1-4)GlcNAc(b1-3)Gal(b1-4)GlcNAc(b1-6)]Man(a1-6)[GlcNAc(b1-3)Gal(b1-4)GlcNAc(b1-3)Gal(b1-4)GlcNAc(b1-3)Gal(b1-4)GlcNAc(b1-2)Man(a1-3)]Man(b1-4)GlcNAc(b1-4)[Fuc(a1-6)]GlcNAc
# Procedure, shortened: as §1
# [26] = molecular target: GlcNAc(b1-3)Gal(b1-4)GlcNAc(b1-3)Gal(b1-4)GlcNAc(b1-3)Gal(b1-4)GlcNAc(b1-3)Gal(b1-4)GlcNAc(b1-2)Man(a1-3)[GlcNAc(b1-3)Gal(b1-4)GlcNAc(b1-3)Gal(b1-4)GlcNAc(b1-3)Gal(b1-4)GlcNAc(b1-3)Gal(b1-4)GlcNAc(b1-2)Man(a1-6)]Man(b1-4)GlcNAc(b1-4)GlcNAc
# Procedure, shortened: as §1
# [27] = molecular target: GlcNAc(b1-3)Gal(b1-4)GlcNAc(b1-3)Gal(b1-4)GlcNAc(b1-3)Gal(b1-4)GlcNAc(b1-3)Gal(b1-4)GlcNAc(b1-2)Man(a1-3)[GlcNAc(b1-3)Gal(b1-4)GlcNAc(b1-3)Gal(b1-4)GlcNAc(b1-3)Gal(b1-4)GlcNAc(b1-3)Gal(b1-4)GlcNAc(b1-2)Man(a1-6)]Man(b1-4)GlcNAc(b1-4)[Fuc(a1-6)]GlcNAc
# Procedure, shortened: as §1
# [28] = molecular target: GlcNAc(b1-3)Gal(b1-4)GlcNAc(b1-3)Gal(b1-4)GlcNAc(b1-3)Gal(b1-4)GlcNAc(b1-3)Gal(b1-4)GlcNAc(b1-2)[GlcNAc(b1-3)Gal(b1-4)GlcNAc(b1-3)Gal(b1-4)GlcNAc(b1-3)Gal(b1-4)GlcNAc(b1-3)Gal(b1-4)GlcNAc(b1-6)]Man(a1-6)[GlcNAc(b1-3)Gal(b1-4)GlcNAc(b1-3)Gal(b1-4)GlcNAc(b1-3)Gal(b1-4)GlcNAc(b1-3)Gal(b1-4)GlcNAc(b1-2)Man(a1-3)]Man(b1-4)GlcNAc(b1-4)[Fuc(a1-6)]GlcNAc
# Procedure, shortened: as §1
# [29] = molecular target: GlcNAc(b1-3)Gal(b1-4)GlcNAc(b1-3)Gal(b1-4)GlcNAc(b1-3)GalNAc
# Procedure, shortened: as §1
# [30] = molecular target: GlcNAc(b1-3)Gal(b1-4)GlcNAc(b1-3)GalNAc
# Procedure, shortened: as §1
# [31] = molecular target: GlcNAc(b1-3)Gal(b1-4)GlcNAc(b1-3)[GlcNAc(b1-3)Gal(b1-4)GlcNAc(b1-3)]GalNAc
# Procedure, shortened: as §1
# [32] = molecular target: GlcNAc(b1-3)Gal(b1-4)GlcNAc(b1-6)[Gal(b1-3)]GalNAc
# Procedure, shortened: as §1
# [33] = molecular target: GlcNAc(b1-3)Gal(b1-4)GlcNAc(b1-6)[GlcNAc(b1-3)Gal(b1-3)]GalNAc
# Procedure, shortened: as §1
# [34] = molecular target: GlcNAc(b1-3)Gal(b1-4)GlcNAc(b1-6)[GlcNAc(b1-3)]Gal(b1-4)GlcNAc
# Procedure, shortened: as §1
binder,measurement,setting,value
"AT1G80310(18) (Arabidopsis thaliana), Q0WP36 (protein) METTTTPLLPGDRSRCGWLRRRLRLKNPLSSELSGAVGDLGTFIPIVLTLTLVSNLDLSTTLIFTGFYNIATGLLFDIPMPVQPMKSIAAVAVSESPHLTPSQIAAAGASTAATLLLLGATGAMSFLYNIIPLPVVRGVQLSQGLQFAFTAIKYVRFNYDTATLKPSSSPRIWLGLDGLILALAALLFIILSTGSGNDREAEDGDLAETSSNESQSRRRRLRLLSSIPSALIVFALGLVLCFIRDPSIFKDLKFGPSKFHILRISWDDWKIGFLRAAIPQIPLSVLNSVIAVCKLSNDLFDKELSATTVSISVGVMNLIGCWFGAMPVCHGAGGLAGQYRFGARSGLSVIFLGIGKLIVGLVFGNSFVRILSQFPIGILGVLLLFAGIELAMASKDMNSKEDSFIMLVCAAVSMTGSSAALGFGCGVVLYLLLKLRTLDCSSVTLFSRSSDESQVDSEAAPRDV",glycan array binding signal (z-score),[1],-0.864
same,glycan array binding signal (z-score),[2],0.232
same,glycan array binding signal (z-score),[3],-0.094
same,glycan array binding signal (z-score),[4],1.56
same,glycan array binding signal (z-score),[5],-0.484
same,glycan array binding signal (z-score),[6],0.221
same,glycan array binding signal (z-score),[7],0.74
same,glycan array binding signal (z-score),[8],-0.861
same,glycan array binding signal (z-score),[9],0.419
same,glycan array binding signal (z-score),[10],-0.097
same,glycan array binding signal (z-score),[11],-0.524
same,glycan array binding signal (z-score),[12],-0.496
same,glycan array binding signal (z-score),[13],0.144
same,glycan array binding signal (z-score),GlcNAc(b1-3)Fuc,-0.731
same,glycan array binding signal (z-score),GlcNAc(b1-3)Gal,-0.25
same,glycan array binding signal (z-score),[14],0.308
same,glycan array binding signal (z-score),GlcNAc(b1-3)Gal(b1-4)Glc,2.64
same,glycan array binding signal (z-score),[15],1.55
same,glycan array binding signal (z-score),[16],0.32
same,glycan array binding signal (z-score),[17],0.074
same,glycan array binding signal (z-score),[18],0.877
same,glycan array binding signal (z-score),[19],-0.512
same,glycan array binding signal (z-score),[20],-0.038
same,glycan array binding signal (z-score),[21],1.31
same,glycan array binding signal (z-score),[22],1.8
same,glycan array binding signal (z-score),[23],1.01
same,glycan array binding signal (z-score),[24],0.059
same,glycan array binding signal (z-score),[25],1.93
same,glycan array binding signal (z-score),[26],0.529
same,glycan array binding signal (z-score),[27],-0.008
same,glycan array binding signal (z-score),[28],2.04
same,glycan array binding signal (z-score),[29],0.002
same,glycan array binding signal (z-score),[30],-0.257
same,glycan array binding signal (z-score),[31],-0.693
same,glycan array binding signal (z-score),[32],-0.69
same,glycan array binding signal (z-score),[33],0.298
same,glycan array binding signal (z-score),[34],0.761

# Another view of some results above.
binder	measurement	setting	value
AT1G80310(18) (Arabidopsis thaliana), Q0WP36 (protein) METTTTPLLPGDRSRCGWLRRRLRLKNPLSSELSGAVGDLGTFIPIVLTLTLVSNLDLSTTLIFTGFYNIATGLLFDIPMPVQPMKSIAAVAVSESPHLTPSQIAAAGASTAATLLLLGATGAMSFLYNIIPLPVVRGVQLSQGLQFAFTAIKYVRFNYDTATLKPSSSPRIWLGLDGLILALAALLFIILSTGSGNDREAEDGDLAETSSNESQSRRRRLRLLSSIPSALIVFALGLVLCFIRDPSIFKDLKFGPSKFHILRISWDDWKIGFLRAAIPQIPLSVLNSVIAVCKLSNDLFDKELSATTVSISVGVMNLIGCWFGAMPVCHGAGGLAGQYRFGARSGLSVIFLGIGKLIVGLVFGNSFVRILSQFPIGILGVLLLFAGIELAMASKDMNSKEDSFIMLVCAAVSMTGSSAALGFGCGVVLYLLLKLRTLDCSSVTLFSRSSDESQVDSEAAPRDV	glycan array binding signal (z-score)	[32]	-0.69
same	glycan array binding signal (z-score)	[33]	0.298
